{
  "sequences": {"note": "By UniProt entry, the sequences of proteins in these tests, tags left out. Where a name states a change or a piece, a line headed by the entry shows the natural chain unless it says otherwise.", "UniProt P29469": "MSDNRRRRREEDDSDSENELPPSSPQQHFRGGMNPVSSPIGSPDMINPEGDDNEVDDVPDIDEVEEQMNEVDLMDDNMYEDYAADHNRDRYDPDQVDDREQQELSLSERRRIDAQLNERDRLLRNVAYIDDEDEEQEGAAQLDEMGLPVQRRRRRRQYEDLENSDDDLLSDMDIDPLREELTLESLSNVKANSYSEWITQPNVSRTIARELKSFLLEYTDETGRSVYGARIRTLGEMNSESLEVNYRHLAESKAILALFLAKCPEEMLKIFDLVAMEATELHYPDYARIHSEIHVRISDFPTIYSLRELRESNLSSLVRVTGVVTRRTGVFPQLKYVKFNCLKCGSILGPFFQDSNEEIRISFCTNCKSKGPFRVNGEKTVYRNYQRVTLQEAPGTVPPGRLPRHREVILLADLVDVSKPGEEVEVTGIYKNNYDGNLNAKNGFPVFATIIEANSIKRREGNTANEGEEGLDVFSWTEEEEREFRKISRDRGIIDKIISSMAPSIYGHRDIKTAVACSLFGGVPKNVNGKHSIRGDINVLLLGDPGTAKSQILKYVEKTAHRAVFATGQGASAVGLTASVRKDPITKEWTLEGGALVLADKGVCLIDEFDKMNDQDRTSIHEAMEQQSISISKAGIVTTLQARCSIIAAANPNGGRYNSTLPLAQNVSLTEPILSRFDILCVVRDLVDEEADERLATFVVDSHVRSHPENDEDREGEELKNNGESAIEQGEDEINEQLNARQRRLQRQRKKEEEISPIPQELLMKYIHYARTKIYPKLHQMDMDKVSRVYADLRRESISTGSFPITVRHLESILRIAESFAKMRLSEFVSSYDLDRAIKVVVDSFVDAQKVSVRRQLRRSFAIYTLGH", "UniProt P21951": "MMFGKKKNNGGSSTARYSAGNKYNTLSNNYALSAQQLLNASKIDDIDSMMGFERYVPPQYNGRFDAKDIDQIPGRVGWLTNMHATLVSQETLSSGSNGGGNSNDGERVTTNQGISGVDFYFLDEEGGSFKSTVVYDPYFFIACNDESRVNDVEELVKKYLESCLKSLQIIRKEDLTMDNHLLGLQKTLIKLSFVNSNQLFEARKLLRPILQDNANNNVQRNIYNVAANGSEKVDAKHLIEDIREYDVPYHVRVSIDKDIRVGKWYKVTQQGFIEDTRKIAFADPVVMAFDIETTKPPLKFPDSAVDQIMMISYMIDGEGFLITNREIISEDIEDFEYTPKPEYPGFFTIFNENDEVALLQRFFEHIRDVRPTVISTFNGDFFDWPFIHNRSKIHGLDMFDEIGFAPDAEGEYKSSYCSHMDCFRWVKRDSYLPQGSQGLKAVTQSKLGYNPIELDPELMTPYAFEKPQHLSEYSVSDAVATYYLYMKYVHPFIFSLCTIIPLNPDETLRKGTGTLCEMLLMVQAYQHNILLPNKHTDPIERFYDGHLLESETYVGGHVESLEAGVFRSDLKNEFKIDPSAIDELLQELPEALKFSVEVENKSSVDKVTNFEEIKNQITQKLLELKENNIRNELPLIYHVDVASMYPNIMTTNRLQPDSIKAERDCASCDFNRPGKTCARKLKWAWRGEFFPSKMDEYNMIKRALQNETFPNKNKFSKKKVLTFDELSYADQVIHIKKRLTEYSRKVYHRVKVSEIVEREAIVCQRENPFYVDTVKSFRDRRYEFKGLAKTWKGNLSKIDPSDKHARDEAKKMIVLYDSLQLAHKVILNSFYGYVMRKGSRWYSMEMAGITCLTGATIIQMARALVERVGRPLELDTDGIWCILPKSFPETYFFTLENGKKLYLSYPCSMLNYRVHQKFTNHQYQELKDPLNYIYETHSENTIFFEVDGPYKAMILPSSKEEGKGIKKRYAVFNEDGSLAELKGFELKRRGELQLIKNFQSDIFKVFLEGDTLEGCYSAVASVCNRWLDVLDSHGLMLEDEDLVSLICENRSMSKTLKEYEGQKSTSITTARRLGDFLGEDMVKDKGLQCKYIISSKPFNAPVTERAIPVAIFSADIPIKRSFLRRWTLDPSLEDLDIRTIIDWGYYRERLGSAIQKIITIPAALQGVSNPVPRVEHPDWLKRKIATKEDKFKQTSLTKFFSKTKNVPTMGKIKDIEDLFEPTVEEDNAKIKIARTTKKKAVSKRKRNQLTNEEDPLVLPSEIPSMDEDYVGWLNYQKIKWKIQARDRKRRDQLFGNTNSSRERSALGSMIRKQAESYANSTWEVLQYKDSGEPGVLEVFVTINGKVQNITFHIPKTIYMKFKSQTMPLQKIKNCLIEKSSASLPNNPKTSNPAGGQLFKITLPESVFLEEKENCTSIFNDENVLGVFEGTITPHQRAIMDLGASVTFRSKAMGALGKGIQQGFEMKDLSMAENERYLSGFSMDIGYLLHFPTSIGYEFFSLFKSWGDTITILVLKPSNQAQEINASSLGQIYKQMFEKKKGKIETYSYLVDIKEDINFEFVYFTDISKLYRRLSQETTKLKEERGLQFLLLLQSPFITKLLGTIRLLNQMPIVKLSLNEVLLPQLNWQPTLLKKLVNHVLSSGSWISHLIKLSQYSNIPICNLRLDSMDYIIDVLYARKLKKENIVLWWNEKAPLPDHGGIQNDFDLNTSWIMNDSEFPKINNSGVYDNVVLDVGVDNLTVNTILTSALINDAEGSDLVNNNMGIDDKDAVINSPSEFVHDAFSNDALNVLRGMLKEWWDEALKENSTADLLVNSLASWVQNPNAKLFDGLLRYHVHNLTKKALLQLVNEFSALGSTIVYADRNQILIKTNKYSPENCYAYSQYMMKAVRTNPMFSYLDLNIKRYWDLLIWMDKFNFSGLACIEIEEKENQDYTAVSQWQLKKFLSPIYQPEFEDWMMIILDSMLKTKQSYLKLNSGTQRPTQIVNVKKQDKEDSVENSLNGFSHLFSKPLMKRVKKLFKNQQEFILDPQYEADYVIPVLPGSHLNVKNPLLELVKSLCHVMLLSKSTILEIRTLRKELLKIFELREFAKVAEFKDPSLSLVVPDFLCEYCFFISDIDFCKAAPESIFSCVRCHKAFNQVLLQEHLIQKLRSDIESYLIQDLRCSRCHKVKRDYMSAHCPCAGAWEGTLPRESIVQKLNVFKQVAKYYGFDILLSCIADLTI", "UniProt P49736": "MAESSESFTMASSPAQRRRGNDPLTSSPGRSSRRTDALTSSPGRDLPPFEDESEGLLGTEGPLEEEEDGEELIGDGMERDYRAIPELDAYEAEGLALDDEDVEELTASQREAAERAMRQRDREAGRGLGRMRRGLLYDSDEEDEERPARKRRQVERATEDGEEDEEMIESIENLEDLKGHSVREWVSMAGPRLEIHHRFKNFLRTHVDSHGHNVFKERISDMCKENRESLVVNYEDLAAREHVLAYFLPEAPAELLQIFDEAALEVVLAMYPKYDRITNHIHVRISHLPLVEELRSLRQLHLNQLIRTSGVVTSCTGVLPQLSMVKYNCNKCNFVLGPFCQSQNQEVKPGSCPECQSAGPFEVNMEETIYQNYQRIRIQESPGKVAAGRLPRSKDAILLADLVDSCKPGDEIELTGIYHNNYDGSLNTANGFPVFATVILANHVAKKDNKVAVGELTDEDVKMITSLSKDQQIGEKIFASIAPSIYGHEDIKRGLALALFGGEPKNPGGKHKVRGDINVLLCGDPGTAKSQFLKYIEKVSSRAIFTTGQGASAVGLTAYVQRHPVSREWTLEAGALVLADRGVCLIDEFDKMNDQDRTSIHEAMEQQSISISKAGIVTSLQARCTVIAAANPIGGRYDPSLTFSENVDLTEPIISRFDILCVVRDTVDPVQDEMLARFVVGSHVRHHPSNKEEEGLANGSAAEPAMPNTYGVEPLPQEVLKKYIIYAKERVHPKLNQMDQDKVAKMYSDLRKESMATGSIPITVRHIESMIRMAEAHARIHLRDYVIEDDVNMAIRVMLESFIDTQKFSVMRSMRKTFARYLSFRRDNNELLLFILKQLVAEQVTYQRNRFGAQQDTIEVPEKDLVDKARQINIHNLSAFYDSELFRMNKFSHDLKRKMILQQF"},
  "source": "paper PMC11405395",
  "about": "(The EMBO Journal, 2024)",
  "molecules": {"B1": {"name": "Rrm3ΔN (Rrm3 lacking the first 193 amino acids) (domain or fragment, UniProt P38766 194-723)", "chain": "MEFQGLKLTVPKKIKPLLRKTVSNMDSMNHRSASSPVVLTMEQERVVNLIVKKRTNVFYTGSAGTGKSVILQTIIRQLSSLYGKESIAITASTGLAAVTIGGSTLHKWSGIGIGNKTIDQLVKKIQSQKDLLAAWRYTKVLIIDEISMVDGNLLDKLEQIARRIRKNDDPFGGIQLVLTGDFFQLPPVAKKDEHNVVKFCFESEMWKRCIQKTILLTKVFRQQDNKLIDILNAIRYGELTVDIAKTIRNLNRDIDYADGIAPTELYATRREVELSNVKKLQSLPGDLYEFKAVDNAPERYQAILDSSLMVEKVVALKEDAQVMMLKNKPDVELVNGSLGKVLFFVTESLVVKMKEIYKIVDDEVVMDMRLVSRVIGNPLLKESKEFRQDLNARPLARLERLKILINYAVKISPHKEKFPYVRWTVGKNKYIHELMVPERFPIDIPRENVGLERTQIPLMLCWALSIHKAQGQTIQRLKVDLRRIFEAGQVYVALSRAVTMDTLQVLNFDPGKIRTNERVKDFYKRLETLK"}, "B2": {"name": "Rrm3Δ86-110 (enzyme, S. cerevisiae, UniProt P38766 1-723, looked up)", "chain": "MFRSHASGNKKQWSKRSSNGSTPAASASGSHAYRQQTLSSFFMGCGKKSAAASKNSTTIIDLESGDEGNRNITAPPRPRLIRNNSVPRLNSYKKSSRSLSMTSSLHKTASASTTQKTYHFDEDETLREVTSVKSNSRQLSFTSTINIEDSSMKLSTDSERPAKRSKPSMEFQGLKLTVPKKIKPLLRKTVSNMDSMNHRSASSPVVLTMEQERVVNLIVKKRTNVFYTGSAGTGKSVILQTIIRQLSSLYGKESIAITASTGLAAVTIGGSTLHKWSGIGIGNKTIDQLVKKIQSQKDLLAAWRYTKVLIIDEISMVDGNLLDKLEQIARRIRKNDDPFGGIQLVLTGDFFQLPPVAKKDEHNVVKFCFESEMWKRCIQKTILLTKVFRQQDNKLIDILNAIRYGELTVDIAKTIRNLNRDIDYADGIAPTELYATRREVELSNVKKLQSLPGDLYEFKAVDNAPERYQAILDSSLMVEKVVALKEDAQVMMLKNKPDVELVNGSLGKVLFFVTESLVVKMKEIYKIVDDEVVMDMRLVSRVIGNPLLKESKEFRQDLNARPLARLERLKILINYAVKISPHKEKFPYVRWTVGKNKYIHELMVPERFPIDIPRENVGLERTQIPLMLCWALSIHKAQGQTIQRLKVDLRRIFEAGQVYVALSRAVTMDTLQVLNFDPGKIRTNERVKDFYKRLETLK", "notes": "Plasmid pOO14; also called 3FLAG-TEV RRM3-∆86-110; source: S. cerevisiae strain yOO7, purified (anti-FLAG M2 resin, HiTrap heparin); not shown: 3FLAG, N-terminal, kept"}},
  "key": {"[1]": {"target": "T1, Rrm3Δ86-110 (S. cerevisiae) (UniProt P38766)", "T1 sequence": "B2 chain", "assay": "co-IP; purified proteins mixed: 10 nM FLAG-Rrm3 with 15 nM Pol ε, 10 min on ice; anti-FLAG M2 magnetic beads; 25 mM Hepes-KOH pH 7.6, 400 mM KOAc, 0.02% NP-40-S, 0.1 mg/mL BSA, 1 mM DTT, 10 mM Mg(OAc)2; immunoblotting; both purified"}, "[2]": {"target": "T2, RTEL1ΔR875-V881 (human) (UniProt Q9NZ71)", "T2 sequence": "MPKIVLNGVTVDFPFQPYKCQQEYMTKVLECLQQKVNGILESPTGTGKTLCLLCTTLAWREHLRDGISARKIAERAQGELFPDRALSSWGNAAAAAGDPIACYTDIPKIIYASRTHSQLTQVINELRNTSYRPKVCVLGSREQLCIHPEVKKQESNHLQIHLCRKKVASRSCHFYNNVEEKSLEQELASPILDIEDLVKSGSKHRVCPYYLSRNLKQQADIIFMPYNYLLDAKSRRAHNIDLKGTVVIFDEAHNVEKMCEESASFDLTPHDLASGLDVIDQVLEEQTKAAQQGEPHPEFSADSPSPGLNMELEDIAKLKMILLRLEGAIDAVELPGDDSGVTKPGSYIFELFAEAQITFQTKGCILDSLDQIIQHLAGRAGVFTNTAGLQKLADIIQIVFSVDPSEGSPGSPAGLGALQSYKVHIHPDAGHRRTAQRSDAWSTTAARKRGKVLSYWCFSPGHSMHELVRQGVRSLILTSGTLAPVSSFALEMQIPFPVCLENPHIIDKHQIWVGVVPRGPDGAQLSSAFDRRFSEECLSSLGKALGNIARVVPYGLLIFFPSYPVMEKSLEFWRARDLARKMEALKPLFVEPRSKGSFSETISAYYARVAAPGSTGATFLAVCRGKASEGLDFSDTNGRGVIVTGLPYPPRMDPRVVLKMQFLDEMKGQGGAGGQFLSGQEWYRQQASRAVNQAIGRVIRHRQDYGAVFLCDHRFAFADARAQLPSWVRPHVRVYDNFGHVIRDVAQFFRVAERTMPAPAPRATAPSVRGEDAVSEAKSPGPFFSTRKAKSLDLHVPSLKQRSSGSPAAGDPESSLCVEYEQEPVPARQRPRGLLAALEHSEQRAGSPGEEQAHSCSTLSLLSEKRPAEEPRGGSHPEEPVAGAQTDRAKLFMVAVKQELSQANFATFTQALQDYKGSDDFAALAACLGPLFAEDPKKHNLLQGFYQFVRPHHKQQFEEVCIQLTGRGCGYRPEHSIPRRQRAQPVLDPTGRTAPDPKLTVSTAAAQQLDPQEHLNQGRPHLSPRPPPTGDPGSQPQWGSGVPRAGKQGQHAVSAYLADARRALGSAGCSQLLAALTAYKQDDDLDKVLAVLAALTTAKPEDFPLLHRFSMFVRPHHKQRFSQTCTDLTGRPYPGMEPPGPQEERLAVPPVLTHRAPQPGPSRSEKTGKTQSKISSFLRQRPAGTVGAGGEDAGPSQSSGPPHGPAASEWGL", "assay": "co-IP; purified proteins mixed: 10 nM RTEL1-FLAG with 15 nM hsCMG, 10 min on ice; anti-FLAG M2 magnetic beads; 25 mM Hepes-KOH pH 7.6, 100 mM KOAc, 0.02% NP-40-S, 0.1 mg/mL BSA, 1 mM DTT, 10 mM Mg(OAc)2; immunoblotting; both purified"}, "[3]": {"target": "CMGE (budding yeast CMG helicase, Cdc45-Mcm2-7-GINS, together with DNA polymerase ε) (S. cerevisiae) (UniProt P29469)", "assay": "condition: 10-fold higher protein concentrations than for Rrm3; co-IP; purified proteins mixed: 1–10 nM Rrm3/Rrm3N-BacPif1/BacPif1 with 15 nM CMG and 30 nM Pol ε, 10 min on ice; anti-Sld5 beads, 30 min 4 °C; 25 mM Hepes-KOH pH 7.6, 400 mM KOAc, 0.02% NP-40-S, 0.1 mg/mL BSA, 1 mM DTT, 10 mM Mg(OAc)2; immunoblotting; both purified"}, "[4]": {"target": "CMGE (budding yeast CMG helicase, Cdc45-Mcm2-7-GINS, together with DNA polymerase ε) (S. cerevisiae) (UniProt P29469)", "assay": "co-IP; purified proteins mixed: 1–10 nM Rrm3/Rrm3N-BacPif1/BacPif1 with 15 nM CMG and 30 nM Pol ε, 10 min on ice; anti-Sld5 beads, 30 min 4 °C; 25 mM Hepes-KOH pH 7.6, 400 mM KOAc, 0.02% NP-40-S, 0.1 mg/mL BSA, 1 mM DTT, 10 mM Mg(OAc)2; immunoblotting; both purified"}},
  "note": "These are yes or no findings as the source states them, for the method shown.",
  "data": [
    {"molecule": "DNA polymerase ε (Pol2, Dpb2, Dpb3, Dpb4), S. cerevisiae (from UniProt P21951 1-2222; P24482 1-689; P27344 1-201; Q04603 1-196) (complex)", "values": [
      {"measurement": "binding", "setting": "[1]", "value": "no binding (tested: 10 nM Rrm3, 15 nM Pol ε)"}
    ]},
    {"molecule": "Homo sapiens CMG helicase (CDC45-MCM2-7-GINS) (from UniProt P49736 1-904; P25205 1-808; P33991 1-863; P33992 1-734; Q14566 1-821; P33993 1-719; O75419 1-566; Q9BRT9 1-223; Q14691 1-196; Q9Y248 1-185; Q9BRX5 1-216) (complex)", "values": [
      {"measurement": "binding", "setting": "[2]", "value": "no binding (tested: 10 nM RTEL1, 15 nM hsCMG)"}
    ]},
    {"molecule": "B1", "values": [
      {"measurement": "binding", "setting": "[3]", "value": "no binding"}
    ]},
    {"molecule": "B2", "values": [
      {"measurement": "binding", "setting": "[4]", "value": "no binding"}
    ]}
  ]
}
